Results are given in words; binding and its absence hold for the method and conditions named. Binding seen in cells or lysates may run through a third protein. Some entries that bind do so weakly or less than the wild type.
Target: PMCA2b fused to GFP (plasma membrane Ca2+-ATPase isoform 2, splice variant b) (UniProt Q01814)
Assay: co-IP; Lysates of differentiating H19-7 cells expressing PMCA2b-GFP, treated with saline or ketamine (274 uM, 48 h). Precipitated with anti-PMCA2 antibodies and blotted for NMDAR1. Controls: IgG and sepharose beads only.

By UniProt entry, the sequences of proteins in these tests, tags left out. Where a name states a change or a piece, a line headed by the entry shows the natural chain unless it says otherwise.
UniProt Q01814: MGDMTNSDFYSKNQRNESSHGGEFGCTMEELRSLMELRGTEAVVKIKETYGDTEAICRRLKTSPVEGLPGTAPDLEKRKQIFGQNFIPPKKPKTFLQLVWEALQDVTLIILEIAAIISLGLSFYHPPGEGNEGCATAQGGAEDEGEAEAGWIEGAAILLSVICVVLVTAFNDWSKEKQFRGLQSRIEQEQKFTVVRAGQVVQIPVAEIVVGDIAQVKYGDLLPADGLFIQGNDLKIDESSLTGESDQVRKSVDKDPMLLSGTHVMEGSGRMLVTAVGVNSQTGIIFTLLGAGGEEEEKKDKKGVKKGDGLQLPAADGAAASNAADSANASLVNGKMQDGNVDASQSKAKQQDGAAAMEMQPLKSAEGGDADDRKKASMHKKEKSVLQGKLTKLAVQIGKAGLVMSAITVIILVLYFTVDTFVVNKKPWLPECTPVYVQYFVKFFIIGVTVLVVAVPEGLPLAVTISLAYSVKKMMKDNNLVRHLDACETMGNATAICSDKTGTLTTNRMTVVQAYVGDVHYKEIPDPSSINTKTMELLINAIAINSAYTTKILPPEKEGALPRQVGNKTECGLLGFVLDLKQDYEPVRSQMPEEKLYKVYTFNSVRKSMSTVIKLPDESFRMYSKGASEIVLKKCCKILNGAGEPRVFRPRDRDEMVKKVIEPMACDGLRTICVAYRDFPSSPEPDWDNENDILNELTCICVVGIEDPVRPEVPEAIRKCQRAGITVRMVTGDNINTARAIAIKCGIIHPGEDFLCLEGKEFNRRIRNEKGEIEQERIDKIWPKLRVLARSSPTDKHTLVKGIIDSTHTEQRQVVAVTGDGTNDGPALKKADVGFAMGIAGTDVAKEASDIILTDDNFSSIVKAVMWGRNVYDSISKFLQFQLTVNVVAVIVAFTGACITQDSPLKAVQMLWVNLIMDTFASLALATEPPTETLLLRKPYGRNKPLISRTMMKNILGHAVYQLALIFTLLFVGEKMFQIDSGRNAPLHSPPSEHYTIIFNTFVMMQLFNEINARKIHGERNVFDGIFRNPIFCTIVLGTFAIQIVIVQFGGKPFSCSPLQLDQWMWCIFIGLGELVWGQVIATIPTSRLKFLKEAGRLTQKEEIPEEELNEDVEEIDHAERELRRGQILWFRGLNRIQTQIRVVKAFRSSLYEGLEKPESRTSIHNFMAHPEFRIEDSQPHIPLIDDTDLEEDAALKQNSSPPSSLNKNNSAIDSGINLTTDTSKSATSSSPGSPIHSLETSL

NMDA receptor subunit NMDAR1 (from UniProt P35439-1 19-938)
binding: binds

— article PMC9167922
